Data taken from patent publication US20070212339A1, “Use Of At Least One Effector Of Glutathione Metabolism Together With Alpha-Lipoic Acid For The Treatment Of Chronically Obstructive Lung Diseases” (ESPARMA GMBH, priority 2003, published 2007).
For at least one compound, name, drawing or mass did not settle the structure.

Legend:
[1] = tested on: primary alveolar macrophages of COPD patients; assay: Cellular thiol status (CMFDA) of primary alveolar macrophages of COPD patients; format: cell-based, human; settings: Example 4, monosubstances
Description: The intercellular thiol content at the individual cell level was determined using 5-chloromethylfluorescein diacetate (CMFDA) in flow cytofluorimetry [Cytometry 1994; 15:349-358, Cytometry 1997; 29:76-82]. CMFDA which is primarily non-fluorogenic is here passively absorbed by the cell. Via the chloromethyl residue there is binding to cytoplasmatic thiol groups. After the acetate residues have been split off by unspecific cellular esterases, this complex which is now cell membrane-impermeable becomes fluorogenic at an excitation wavelength of λex=490 nm with an emission wavelength of λem=520 nm. The mean fluorescence intensity of the sample (10,000 cells) is directly proportional to the concentration of the intracellular thiol groups. Alveolar macrophages were isolated from the bronchoalveolar lavage fluid of COPD patients, taken up in cell culture medium and incubated in a gassing incubator at 37° C., a relative air humidity of 98% and a relative air-CO2 content of 7.5%. […] The cellular thiol status was determined by means of the measuring method described under 1. […] The cellular thiol status was determined by means of the measuring method described under 1. […]

[2] = tested on: primary alveolar macrophages of COPD patients; assay: Phagocytosis rate of primary alveolar macrophages of COPD patients (cytofluorimetric test with opsonized fluorochrome-marked bacteria); format: cell-based, human; settings: monosubstances, by comparison with the untreated control
Description: In a similar procedure to the one described in Example 3, alveolar macrophages were isolated and cultivated ex vivo. The phagocytosis efficiency was determined by a cytofluorimetric test at the single-cell level. The macrophages were co-cultivated with opsonized and fluorochrome-marked bacteria. The amount of bacteria absorbed in a defined period of time was assessed quantitatively via the fluorescence intensity in the macrophages and counted as the measurement for their capacity for phagocytosis. The influence of the combinations used according to the invention on the capacity of the […] macrophages for phagocytosis after a treatment period of up to 96 hours is shown in Table 7.

COc1cc(C2Oc3cc([C@H]4Oc5cc(O)cc(O)c5C(=O)[C@@H]4O)ccc3OC2CO)ccc1O (some centres unmarked) [Silibinin, silibinin]
cellular thiol expression [1]: no modulation | phagocytosis rate [2]: had not altered
